From the odorant receptor screen of Mainland et al. (2015)
Where “and” joins values, the source holds several entries; their conditions need not be identical. Identical values can stand only once. The list shows a part of the results. Single wells; the ratio to wells without odorant was worked out here, and repeats agree poorly.

The molecules below were run on OR10C1 F60L/P174Q/M246V clone 1366 (assay: odorant receptor activation (CRE luciferase / Renilla) (fold of no-odor wells); higher = more activation). Conditions: 100 µM.
`CCCCCCCCC=O` [nonyl aldehyde] was tested, and the odorant receptor activation was 0.934. `C=CC(C)(O)CCC=C(C)C` (stereo not drawn) [linalool] gave an odorant receptor activation of 0.869. Work on `CC(C)=CCCC(C)=CC=O` [citral] yielded an odorant receptor activation of 0.231. `C=CCc1ccc(O)c(OC)c1` [eugenol] was tested, and the odorant receptor activation was 1.26 and 1.37. `CC(C)CCC(=O)O` [4-methylvaleric acid] gave an odorant receptor activation of 1.8. With `COc1cc(C)ccc1O` [2-methoxy-4-methylphenol] the odorant receptor activation was 1.57. `CC1CCC(C(C)C)C(O)C1` (single isomer, unassigned; (+)) [(+)-menthol] showed an odorant receptor activation of 2.19. `CCCCCCCC=O` [octyl aldehyde] showed an odorant receptor activation of 0.799. Molecule `CC(C)C(=O)O` [isobutyric acid] has an odorant receptor activation of 0.78. Work on `C=C(C)C1CC=C(C)C(=O)C1` (stereo not drawn) [r-carvone] yielded an odorant receptor activation of 1. For `CCCCCCCCCC=O` [decyl aldehyde], the odorant receptor activation was 1.32. In the case of `CC1=CCC(C(C)(C)O)CC1` (stereo not drawn) [terpineol], the odorant receptor activation is reported as 1.02. `CC(C)C=O` [isobutyraldehyde] showed an odorant receptor activation of 0.924. `CC(C)CC(=O)O` [isovaleric acid] gave an odorant receptor activation of 0.869. `CC1CCC(C(C)C)C(O)C1` (single isomer, unassigned; (-)) [(-)-menthol] gave an odorant receptor activation of 0.636. In the case of `CC12CCC(CC1)C(C)(C)O2` [cineole], the odorant receptor activation is reported as 0.148. For `COC(=O)c1ccccc1O` [methyl salicylate], the odorant receptor activation was 0.75. Molecule `CCCCO` [1-butanol] has an odorant receptor activation of 1.69. `CCCCCCCC=CC=O` [2-decenal] was tested, and the odorant receptor activation was 1.75. In the case of `CC12CCC(C1)C(C)(C)C2=O` (stereo not drawn) [fenchone], the odorant receptor activation is reported as 1. In the case of `CCCC(=O)O` [butyric acid], the odorant receptor activation is reported as 0.202. For `c1ccc(Oc2ccccc2)cc1` [diphenyl ether], the odorant receptor activation was 0.859. For `C=CCSCC=C` [diallyl sulfide], the odorant receptor activation was 0.99. `CCCCCCCCCCC=O` [undecanal] gave an odorant receptor activation of 0.968. `CCCCCCCCOC(C)=O` [octyl acetate] showed an odorant receptor activation of 1.01. `CC/C=C\CCO` [cis-3-hexen-1-ol] was tested, and the odorant receptor activation was 0.168. Work on `c1cnccn1` [pyrazine] yielded an odorant receptor activation of 0.854. `O=C1CCCCCCCCCCCCCCO1` [pentadecalactone] was tested, and the odorant receptor activation was 1.05.
